These results are taken from the supplement of paper PMC12889115.

The list shows a part of the results. These are raw signals, not scaled to a control.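 Primary screen: polymyxin B was added at a level permeabilizing Salmonella outer membranes while sparing inner membranes. DMSO wells, both with and without polymyxin B, established maximum growth. Plate-to-plate variation meant each plate was ranked on its own, and the lowest-OD600 compounds were selected as hits.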

The test system of the experiment is Salmonella enterica serovar Typhimurium SL1344. Briefly: bacterial growth OD600 after 18 h with compound and polymyxin B; higher = more bacterial growth (less inhibition). Conditions: 50 µM, Mueller-Hinton broth.

Take `COc1cccc(OCc2nc(C(=O)N3CCCCCC3)co2)c1`: the “bacterial growth OD600” value (polymyxin B 1 µg/mL) amounted to 1.06.
Regarding `Cc1cccc(N2CCN(C(=O)CCC3(Cc4ccc5ccccc5c4)CCC(=O)N3)CC2)c1C` (configuration not stated), under “polymyxin B 0.75 µg/mL”, the “bacterial growth OD600” value worked out at 0.004.
With `Cc1cc2ncn(Cc3cc(C(=O)N(C)C4CCOCC4)n[nH]3)c2cc1C`, the “bacterial growth OD600” value (polymyxin B 1 µg/mL) worked out at 0.865.
In the case of `O=C(NCc1nc(NCCCc2ccccc2)c2ccccc2n1)c1ccoc1`, where the note is “polymyxin B 0.75 µg/mL”, the “bacterial growth OD600” value was 0.865.
With `CN(CCc1cnn(C)c1)c1nc2nonc2nc1NC1CCCC1`, the “bacterial growth OD600” value (polymyxin B 1 µg/mL) was 0.923.
`Cc1cc(C)n(-c2cccc(C(=O)NCC3Cc4cc(F)cc(-c5cccnc5)c4O3)c2)n1` (configuration not stated): the “bacterial growth OD600” value (polymyxin B 0.75 µg/mL) stood at 0.333.
In the case of `COc1ccc(CN2Cc3ccccc3OC(C)C2)c(OC)c1OC` (configuration not stated), where the note is “polymyxin B 0.75 µg/mL”, the “bacterial growth OD600” value was determined as 0.807.
Regarding `CCn1cc(CN2CCC(n3nccc3NC(=O)C3CCCC3)CC2)cn1`, where the note is “polymyxin B 1 µg/mL”, the “bacterial growth OD600” value was found to be 0.847.
`Cc1c(C(=O)N2CCC(N3CCCC(O)C3)CC2)sc2ncnc(NCCC3=CCCCC3)c12` (configuration not stated): the “bacterial growth OD600” value (polymyxin B 0.75 µg/mL) turned out to be 0.881.
As for `COc1ccc(-c2ncc(CN3CC[C@@H](N4CCC(O)CC4)[C@H](O)C3)cn2)cc1`, the “bacterial growth OD600” value (polymyxin B 1 µg/mL) was found to be 0.872.
In the case of `CCOC(=O)N1CCC(NC(=O)c2cc(NC(C)=O)c3c(c2)ncn3CCc2ccccn2)CC1`, the “bacterial growth OD600” value (polymyxin B 0.75 µg/mL) came to 0.857.
For `O=C1CC(NS(=O)(=O)N2CCCC2)CN1Cc1ccc(F)cc1` (configuration not stated), the “bacterial growth OD600” value (polymyxin B 1 µg/mL) worked out at 0.914.
In the case of `COc1ccc(F)c(CN2CCc3c(C(=O)NCc4ccccc4OC)c(OC)cc(=O)n3CC2)c1`, the “bacterial growth OD600” value (polymyxin B 0.75 µg/mL) amounted to 0.828.
On the same count and under the same terms, for `CCn1ccnc1CNCc1cccnc1Oc1ccc(F)c(F)c1` the value was 0.745.
Still for that read-out and setting: for `COc1cccc(-c2ccc(NC(=O)C3CCCN3S(C)(=O)=O)cc2)c1` (configuration not stated) the value was 0.587; for `Cc1ncoc1C(=O)N1CCOC(Cc2ccccc2)C1` (configuration not stated), 0.88; for `COc1cccc(-c2cnc(-c3ccncc3)nc2C2CCN(C(=O)c3ccc4c(c3)OCO4)CC2)c1`, 0.004.
Same read-out and setting: under `CCN1CCN(C2(C(=O)N3CCCC(OC)C3)Cc3ccccc3C2)CC1` (configuration not stated) stands 0.782; under `CCN1C(=O)CC(CC(=O)N(C)CCc2cn[nH]c2)(c2cccc(C(F)(F)F)c2)C1=O` (configuration not stated), 0.797; under `COc1cc(CC2(CCC(=O)NCCc3ccc(C(F)(F)F)cc3)CCC(=O)N2)ccc1F` (configuration not stated), 0.742.
For the compound `NC(=O)[C@@H]1CCCN1c1ccc(-c2nc(CCCc3ccccc3)no2)cn1`, the “bacterial growth OD600” value (polymyxin B 0.75 µg/mL) was determined as 0.63.
`CC(Cc1cnccn1)Nc1ccc(-c2nc(C3CC3)no2)cn1` (configuration not stated): under “polymyxin B 1 µg/mL”, the “bacterial growth OD600” value turned out to be 1.1.
As to `COc1cccc(OCc2cc(C(=O)N3CCCC(CCCO)C3)no2)c1` (configuration not stated), the “bacterial growth OD600” value (polymyxin B 1 µg/mL) stood at 0.948.
Take `CC(NC(=O)C1CCN(C)CC1)c1nnc2n1CCN(Cc1ccc3c(c1)Cc1ccccc1-3)CC2` (configuration not stated): the “bacterial growth OD600” value (polymyxin B 0.75 µg/mL) is 0.859.
In the case of `Cc1ncoc1C(=O)N1CCC2(CCCN(Cc3cccc(F)c3F)C2=O)C1` (configuration not stated), the “bacterial growth OD600” value (polymyxin B 1 µg/mL) turned out to be 1.04.
On to `COc1ccc(NC2CCCN(C(=O)C3(C)CCCCC3)C2)cc1OC` (configuration not stated), for which the “bacterial growth OD600” value (polymyxin B 1 µg/mL) was determined as 0.88.
Still for that read-out and setting: under `O=C(NCCCN1CCOCC1)c1ccc2oc(CCc3ccccc3)nc2c1` stands 0.907; under `O=C(CCc1nnc(C2(c3ccc(Cl)cc3)CCC2)o1)NCC1COCCO1` (configuration not stated), 0.796.
As for `O=C(CCc1cn[nH]c1)N1CCC(C2CCN(Cc3cccnc3)CC2)C1` (configuration not stated), where the note is “polymyxin B 0.75 µg/mL”, the “bacterial growth OD600” value stood at 0.927.
Take `CCS(=O)(=O)Nc1cc(C(=O)NCCc2cnccn2)c2c(c1)nc(-c1ccccc1)n2C`: under “polymyxin B 0.75 µg/mL”, the “bacterial growth OD600” value was found to be 0.864.
For `COCC(C)NC(=O)Cc1c2c(n(Cc3ccccc3F)c1C)CCCC2=O` (configuration not stated), the “bacterial growth OD600” value (polymyxin B 1 µg/mL) amounted to 0.689.
`Cc1ccccc1SC1CCN(C(=O)C2CCC(=O)N(C3CC3)C2)CC1` (configuration not stated): under “polymyxin B 1 µg/mL”, the “bacterial growth OD600” value was 0.933.
